The record followed here is PMC11066047.

Chains of the proteins cited; added tags and fusions are not shown.
UniProt P35169: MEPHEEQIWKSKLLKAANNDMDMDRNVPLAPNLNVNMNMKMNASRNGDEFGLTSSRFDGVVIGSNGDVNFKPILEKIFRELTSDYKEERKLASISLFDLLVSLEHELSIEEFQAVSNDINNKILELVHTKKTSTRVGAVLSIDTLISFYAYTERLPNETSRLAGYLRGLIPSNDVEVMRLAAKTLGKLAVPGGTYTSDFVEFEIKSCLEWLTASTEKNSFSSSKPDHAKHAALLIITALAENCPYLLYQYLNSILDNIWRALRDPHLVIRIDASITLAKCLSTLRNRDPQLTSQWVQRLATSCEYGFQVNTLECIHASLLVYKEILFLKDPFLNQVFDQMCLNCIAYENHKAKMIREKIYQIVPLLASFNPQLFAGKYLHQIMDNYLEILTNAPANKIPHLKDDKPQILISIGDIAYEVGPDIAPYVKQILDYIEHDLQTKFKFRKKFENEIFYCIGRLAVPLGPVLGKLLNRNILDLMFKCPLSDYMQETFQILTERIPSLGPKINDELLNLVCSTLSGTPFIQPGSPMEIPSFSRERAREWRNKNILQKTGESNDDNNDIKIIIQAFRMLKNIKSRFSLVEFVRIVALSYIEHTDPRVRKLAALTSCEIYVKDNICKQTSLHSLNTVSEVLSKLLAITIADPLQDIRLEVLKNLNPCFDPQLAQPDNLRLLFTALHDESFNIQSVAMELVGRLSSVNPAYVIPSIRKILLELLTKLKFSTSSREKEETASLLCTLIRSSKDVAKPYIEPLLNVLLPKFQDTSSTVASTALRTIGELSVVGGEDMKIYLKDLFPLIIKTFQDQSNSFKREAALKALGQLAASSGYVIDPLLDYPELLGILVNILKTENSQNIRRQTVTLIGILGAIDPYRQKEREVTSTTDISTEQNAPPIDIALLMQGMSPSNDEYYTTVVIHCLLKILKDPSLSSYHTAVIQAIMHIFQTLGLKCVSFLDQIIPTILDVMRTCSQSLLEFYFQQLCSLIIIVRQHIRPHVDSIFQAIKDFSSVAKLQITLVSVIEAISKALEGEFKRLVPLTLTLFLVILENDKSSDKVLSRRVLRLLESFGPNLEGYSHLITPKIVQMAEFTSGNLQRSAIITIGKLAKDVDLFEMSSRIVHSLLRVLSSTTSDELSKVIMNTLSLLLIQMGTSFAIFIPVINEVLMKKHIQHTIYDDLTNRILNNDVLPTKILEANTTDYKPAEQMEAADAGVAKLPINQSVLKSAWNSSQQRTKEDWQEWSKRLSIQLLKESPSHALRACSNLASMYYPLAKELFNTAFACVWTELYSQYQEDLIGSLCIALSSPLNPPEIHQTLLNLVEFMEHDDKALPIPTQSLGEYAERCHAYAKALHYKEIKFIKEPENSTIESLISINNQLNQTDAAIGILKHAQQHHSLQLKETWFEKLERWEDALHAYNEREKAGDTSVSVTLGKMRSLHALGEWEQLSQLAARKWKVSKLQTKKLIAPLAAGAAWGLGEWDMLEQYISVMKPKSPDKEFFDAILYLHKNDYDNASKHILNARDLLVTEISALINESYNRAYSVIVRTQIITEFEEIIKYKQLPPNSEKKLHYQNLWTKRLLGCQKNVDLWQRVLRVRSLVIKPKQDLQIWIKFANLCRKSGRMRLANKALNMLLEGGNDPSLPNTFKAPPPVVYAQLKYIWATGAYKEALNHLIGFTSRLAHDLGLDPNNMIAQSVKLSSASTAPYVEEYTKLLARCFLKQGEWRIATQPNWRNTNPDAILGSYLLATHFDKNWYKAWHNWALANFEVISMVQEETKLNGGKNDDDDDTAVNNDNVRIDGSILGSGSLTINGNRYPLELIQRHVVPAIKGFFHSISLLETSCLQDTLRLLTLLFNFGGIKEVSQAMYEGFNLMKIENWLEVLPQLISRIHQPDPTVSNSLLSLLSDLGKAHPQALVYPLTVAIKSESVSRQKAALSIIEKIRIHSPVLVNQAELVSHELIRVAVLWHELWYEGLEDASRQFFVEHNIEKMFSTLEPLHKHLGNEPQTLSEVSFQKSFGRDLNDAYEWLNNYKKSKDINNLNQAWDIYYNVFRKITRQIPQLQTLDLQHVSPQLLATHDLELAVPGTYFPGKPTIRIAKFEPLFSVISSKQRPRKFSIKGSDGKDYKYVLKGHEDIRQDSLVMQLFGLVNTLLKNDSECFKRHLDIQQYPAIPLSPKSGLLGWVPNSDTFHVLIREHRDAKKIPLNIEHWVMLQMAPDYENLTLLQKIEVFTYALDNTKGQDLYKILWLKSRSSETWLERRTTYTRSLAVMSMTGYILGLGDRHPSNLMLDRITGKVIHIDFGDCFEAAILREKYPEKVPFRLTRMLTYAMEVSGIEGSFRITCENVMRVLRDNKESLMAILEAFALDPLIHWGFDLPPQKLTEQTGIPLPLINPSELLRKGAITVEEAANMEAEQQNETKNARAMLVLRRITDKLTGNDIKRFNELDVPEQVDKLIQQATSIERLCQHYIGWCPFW
UniProt P38873: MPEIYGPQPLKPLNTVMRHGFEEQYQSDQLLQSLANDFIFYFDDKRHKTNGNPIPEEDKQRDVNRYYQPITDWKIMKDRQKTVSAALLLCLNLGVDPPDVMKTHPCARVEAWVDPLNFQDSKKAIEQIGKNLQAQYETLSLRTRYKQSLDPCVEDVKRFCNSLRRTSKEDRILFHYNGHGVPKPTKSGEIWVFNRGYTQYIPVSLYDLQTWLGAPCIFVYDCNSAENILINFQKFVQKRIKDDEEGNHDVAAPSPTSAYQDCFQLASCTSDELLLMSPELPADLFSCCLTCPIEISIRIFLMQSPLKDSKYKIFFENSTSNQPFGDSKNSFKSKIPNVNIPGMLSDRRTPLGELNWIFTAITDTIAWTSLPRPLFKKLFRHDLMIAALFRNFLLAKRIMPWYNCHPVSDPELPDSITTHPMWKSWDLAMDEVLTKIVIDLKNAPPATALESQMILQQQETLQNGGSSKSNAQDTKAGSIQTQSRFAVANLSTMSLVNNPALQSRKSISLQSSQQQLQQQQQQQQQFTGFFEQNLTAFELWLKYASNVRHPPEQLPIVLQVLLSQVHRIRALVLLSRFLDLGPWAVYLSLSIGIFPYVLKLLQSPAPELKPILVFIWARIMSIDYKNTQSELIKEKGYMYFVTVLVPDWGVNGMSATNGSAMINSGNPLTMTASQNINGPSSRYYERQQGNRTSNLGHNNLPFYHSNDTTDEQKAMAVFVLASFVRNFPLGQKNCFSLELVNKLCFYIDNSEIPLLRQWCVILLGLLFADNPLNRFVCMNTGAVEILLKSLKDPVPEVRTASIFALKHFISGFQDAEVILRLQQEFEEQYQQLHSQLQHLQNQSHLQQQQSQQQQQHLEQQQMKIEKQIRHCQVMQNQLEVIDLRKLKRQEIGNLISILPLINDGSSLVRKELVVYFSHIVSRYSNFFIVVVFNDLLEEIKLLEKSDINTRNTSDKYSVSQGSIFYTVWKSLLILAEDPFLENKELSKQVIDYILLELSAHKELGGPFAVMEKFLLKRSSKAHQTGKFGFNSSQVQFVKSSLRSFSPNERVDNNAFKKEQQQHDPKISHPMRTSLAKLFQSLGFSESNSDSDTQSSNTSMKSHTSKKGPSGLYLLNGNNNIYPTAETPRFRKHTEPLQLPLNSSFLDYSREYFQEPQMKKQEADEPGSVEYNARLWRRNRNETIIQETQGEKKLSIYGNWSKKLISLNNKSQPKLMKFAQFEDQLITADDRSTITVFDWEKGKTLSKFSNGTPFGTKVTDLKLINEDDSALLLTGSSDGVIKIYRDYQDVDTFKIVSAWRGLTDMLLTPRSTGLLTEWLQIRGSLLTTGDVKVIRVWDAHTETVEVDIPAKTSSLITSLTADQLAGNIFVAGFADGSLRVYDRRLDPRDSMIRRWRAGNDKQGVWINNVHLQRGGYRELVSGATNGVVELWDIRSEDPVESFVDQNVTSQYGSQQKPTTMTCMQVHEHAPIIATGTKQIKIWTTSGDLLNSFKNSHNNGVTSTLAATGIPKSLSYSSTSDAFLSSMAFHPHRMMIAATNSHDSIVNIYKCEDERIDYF
UniProt Q04338: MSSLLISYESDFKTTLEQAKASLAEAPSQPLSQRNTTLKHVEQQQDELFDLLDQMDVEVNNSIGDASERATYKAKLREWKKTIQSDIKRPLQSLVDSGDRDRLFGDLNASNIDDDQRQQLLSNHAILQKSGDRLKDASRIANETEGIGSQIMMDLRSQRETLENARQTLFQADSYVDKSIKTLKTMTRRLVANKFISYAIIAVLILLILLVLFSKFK

These are yes or no findings as the source states them, for the method shown. Binding seen in cells or lysates may run through a third protein. Some entries that bind do so weakly or less than the wild type. For some assays here: Where a sequence is shown, tags or fusion partners need not be part of it.

Holding throughout (experiment): cross-linking; XL-MS on isolated intact yeast vacuoles; 1 mM Azide-A-DSBSO (lysine-lysine), 20 min at room temperature, 10 mM HEPES/KOH pH 7.4 buffers; 2% FDR at unique lysine-lysine connection level
Test [1] has as its target Tor1 (Saccharomyces cerevisiae (endogenous in isolated vacuoles)) (UniProt P35169).
The target in test [2] is T1, Lst8 (Saccharomyces cerevisiae (endogenous in isolated vacuoles)) (UniProt P41318).
T1 sequence: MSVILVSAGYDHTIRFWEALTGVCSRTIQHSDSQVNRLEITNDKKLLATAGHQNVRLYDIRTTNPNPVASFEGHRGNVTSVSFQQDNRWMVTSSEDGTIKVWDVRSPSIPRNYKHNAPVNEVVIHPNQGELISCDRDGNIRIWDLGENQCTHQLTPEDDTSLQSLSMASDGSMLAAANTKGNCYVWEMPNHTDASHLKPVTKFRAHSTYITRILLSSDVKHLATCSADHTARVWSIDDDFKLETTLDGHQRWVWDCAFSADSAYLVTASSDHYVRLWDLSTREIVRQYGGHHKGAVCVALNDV

In test [3] the target is Kog1 (Saccharomyces cerevisiae (endogenous in isolated vacuoles)) (UniProt P38873).
Test [4] concerns the target T2, Vam3 (Saccharomyces cerevisiae (endogenous in isolated vacuoles)) (UniProt Q12241).
T2 sequence: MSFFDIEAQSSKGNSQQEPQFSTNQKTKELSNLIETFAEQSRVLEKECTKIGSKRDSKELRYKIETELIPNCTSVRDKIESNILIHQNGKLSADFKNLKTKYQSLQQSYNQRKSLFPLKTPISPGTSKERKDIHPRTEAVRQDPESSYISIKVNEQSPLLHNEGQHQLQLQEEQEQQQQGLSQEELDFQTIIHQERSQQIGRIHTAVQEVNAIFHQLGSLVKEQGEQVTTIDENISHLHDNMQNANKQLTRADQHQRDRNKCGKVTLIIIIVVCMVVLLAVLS

Test [5] deals with Vti1 (Saccharomyces cerevisiae (endogenous in isolated vacuoles)) (UniProt Q04338).

B1: Pib2 (protein, UniProt P53191 1-635)
chain: MTALHSVSKTPAIKEEEEDGDERDGRGVPLGPRNHDYRGRKGDEESGADTVTSPITFEKKKIAPRASTHSEQSILSSISLKSMVNQHRQQQLQQESSTGAGTGFVDRKQQIQSPAMVSILRKNSAEENVRSSHSSKLGEGQIDGRKASASKEIGKTLPFTDDQRSNPELDPTNSVVDVSRGKNTKSKTVFNELEDDADDDDEVRQKNLTTQALRKLSSFKMNASSNLRLSKENKAKESSSSSTSSVSSSSTSKVENIVDKLTTTNSSSMSQLRFGNTNVIIDSVNHAAKPPHQQMLRKPSLEFLPQPASSTNLNFNSNKHKSNVRQISNPKKPLYIPAVLRKVSETNITNDDLLNATLSSYYKKASNLEHGFNPSKSQSASVQNANNLRIISSQSSVQSNTSSILESYKNKISSYLFPNSIPNSDRINLIPTISNRNSARVNPPTKDHWIPDSKRNSCRYCHKPFTLWERKHHCRHCGDIFCQDHLRHWLYLDSQANFIMINELNNGGINGGGTLCKICDDCLVEYENLSTTNHNANTNEDNINVEEGEDDDNDNRKKLRNYYKNRQMNALFRPKKGGSSQEHATVDRDTTTPIQVKSNDEEADNENTGGEQEEGNDVLGSVIGSVPANWNWSSF
Consider B1, for which the binding entry in test [1], in test [2] and in test [3] was “binds” each time.

B2: Vam7 (protein, UniProt P32912 1-316)
chain: MAANSVGKMSEKLRIKVDDVKINPKYVLYGVSTPNKRLYKRYSEFWKLKTRLERDVGSTIPYDFPEKPGVLDRRWQRRYDDPEMIDERRIGLERFLNELYNDRFDSRWRDTKIAQDFLQLSKPNVSQEKSQQHLETADEVGWDEMIRDIKLDLDKESDGTPSVRGALRARTKLHKLRERLEQDVQKKSLPSTEVTRRAALLRSLLKECDDIGTANIAQDRGRLLGVATSDNSSTTEVQGRTNNDLQQGQMQMVRDQEQELVALHRIIQAQRGLALEMNEELQTQNELLTALEDDVDNTGRRLQIANKKARHFNNSA
In the case of B2, the binding result in test [4] and in test [5] was “binds” in each case.
